Assay results taken from paper PMC9289710.

Sequences of proteins named here, by UniProt entry; tags and fusion partners are left off. A change or cut given only in a name is not applied to a line headed by its entry.
UniProt Q15172: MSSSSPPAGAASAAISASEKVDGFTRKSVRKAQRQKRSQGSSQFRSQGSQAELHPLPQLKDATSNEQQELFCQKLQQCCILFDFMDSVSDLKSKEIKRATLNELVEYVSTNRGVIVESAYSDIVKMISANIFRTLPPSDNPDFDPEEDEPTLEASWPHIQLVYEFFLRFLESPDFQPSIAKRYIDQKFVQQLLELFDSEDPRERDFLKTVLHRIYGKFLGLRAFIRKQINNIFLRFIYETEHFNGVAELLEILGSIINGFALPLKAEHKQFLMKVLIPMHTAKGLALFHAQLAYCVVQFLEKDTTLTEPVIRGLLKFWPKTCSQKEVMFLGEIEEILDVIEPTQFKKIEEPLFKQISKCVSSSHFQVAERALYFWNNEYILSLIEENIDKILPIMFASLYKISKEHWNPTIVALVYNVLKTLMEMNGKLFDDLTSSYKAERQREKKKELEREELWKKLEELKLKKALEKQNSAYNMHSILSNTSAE
UniProt P67775: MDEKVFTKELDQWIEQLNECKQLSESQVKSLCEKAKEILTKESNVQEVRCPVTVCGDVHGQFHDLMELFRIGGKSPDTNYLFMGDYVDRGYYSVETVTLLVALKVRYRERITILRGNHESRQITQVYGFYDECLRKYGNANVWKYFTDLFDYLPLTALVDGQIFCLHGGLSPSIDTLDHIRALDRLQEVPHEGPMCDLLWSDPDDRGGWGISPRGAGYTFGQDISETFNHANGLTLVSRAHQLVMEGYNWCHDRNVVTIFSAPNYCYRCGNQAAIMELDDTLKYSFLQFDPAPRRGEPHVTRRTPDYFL

Target: Strep-B56α (UniProt Q15172)
Assay: pull-down; Strep-B56α, His-PP2ACA and MBP-PPP2R1A co-expressed in HEK293; complex purified by a Strep-tag affinity column, peak fractions run on a GF200 10/30 column; 100 mM Tris pH 8.0, 150 mM NaCl, 10% glycerol, 0.5 mM TCEP

- binding: binds
Substance: His-PP2ACA (from UniProt P67775) (enzyme)

Results are given in words; binding and its absence hold for the method and conditions named. In cells and extracts the contact can be indirect. Binding can be weak; no strength is given.
